{"source": "patent US5159061A", "about": "“Atrial natriuretic peptide derivative” (Takeda Chemical Industries, Ltd., priority 1986, dated 1992)", "key": {"[1]": {"system": "spontaneously hypertensive rats (SHR)", "assay": "Hypotensive action in spontaneously hypertensive rats (SHR)", "assay_type": "in vivo, rat", "settings": "male SHR, 20 weeks old; intravenous 100 μg/250 μl/kg in physiological saline; maximum decrease in blood pressure, difference from preadministration value", "procedure": "Hypotensive action in spontaneously hypertensive rats (SHR)\nThree male SHRs at the age of 20 weeks in each group were anesthetized with pentobarbital (50 mg/kg, intraperitoneal administration); SP-10 and SP-45 polyethylene tubes (manufactured by Natsume Seisakusho, Japan) were inserted respectively into the groin artery and vein, and through each of these a cannula was passed to the neck site via the back subcutaneous tissue, and one end of the cannula was fixed there. The rats were used in experiments the following day. As a α-hANP derivatives, [Aib^6 ]-α-hANP[6-28] obtained in Example 1 and [Aib^6,Ile^12 ]-α-hANP[6-28] obtained in Example 8, and as a control, α-hANP[7-28], in solution in physiological saline, were each intravenously administered in the ratio of 100 μg/250 μl/kg of body weight. Hypotensive activities are shown as a degree of the maximum decrease in blood pressure (difference from the preadministration value) that occurred after the administration of the subject compound."}, "[2]": {"settings": "in vivo; cited from earlier work"}, "[3]": {"settings": "in vivo; cited from earlier work", "remark": "listed apart in the source"}}, "note": "Entries after “also recorded” stand apart in the source; their conditions may differ. Part of at least one peptide drawing is inferred or uncertain, most often the ends. Where a SMILES comes first, the peptide text is derived from it. Bridges are numbered along the chain shown (N, C = ends)."}
{"smiles": "CC[C@H](C)[C@@H]1NC(=O)[C@H](CCCNC(=N)N)NC(=O)[C@H](CC(=O)O)NC(=O)[C@H](CCSC)NC(=O)[C@H](CCCNC(=N)N)NC(=O)CNC(=O)CNC(=O)[C@H](Cc2ccccc2)NC(=O)[C@@H](N)CSSC[C@@H](C(=O)N[C@@H](CC(N)=O)C(=O)N[C@@H](CO)C(=O)N[C@@H](Cc2ccccc2)C(=O)N[C@@H](CCCNC(=N)N)C(=O)N[C@@H](Cc2ccc(O)cc2)C(=O)O)NC(=O)CNC(=O)[C@H](CC(C)C)NC(=O)CNC(=O)[C@H](CO)NC(=O)[C@H](CCC(N)=O)NC(=O)[C@H](C)NC(=O)CNC1=O", "note": "[α-hANP[7-28]] (H-CFGGRMDRIGAQSGLGCNSFRY-OH; disulfide 1-17)", "values": [{"measurement": "Degree of Decrease in Blood Pressure", "setting": "[1]", "result": "-22 ΔmmHg"}, {"measurement": "natriuretic activity compared with α-hANP", "setting": "[2]", "result": "equivalent to that of α-hANP; also recorded: equivalent to those of α-hANP"}, {"measurement": "hypotensive action compared with α-hANP", "setting": "[3]", "result": "equivalent to those of α-hANP"}]}
